From patent US20200016134A1, “COMPOSITIONS AND METHODS FOR TREATING SUBSTANCE ABUSE DISORDERS” (EMBERA NEUROTHERAPEUTICS, INC., priority 2016, published 2020)

O=C1Nc2ccc(Cl)cc2C(c2ccccc2)=NC1O (centres unmarked) [oxazepam]
influence of metyrapone and oxazepam on plasma concentrations of each other (ip, rats, FIG. 14): did not influence plasma concentrations of each other | effect of the presence of cocaine on the plasma concentration of the drug (iv cocaine 0.25 mg/kg/infusion every 2 minutes for 1 hour): did not affect
